Results as given in article PMC10091560.
Results are given in words; binding and its absence hold for the method and conditions named. Binding calls can cover weak binding; strength is not graded here.

Legend:
[1] = target: T1, polypeptide …; assay: far-Western, overlay or dot blot; serially diluted peptide blotted onto PVDF, soaked in ORF55 protein solution, detected with anti-MBP-tag antibody and HRP secondary antibody; both purified
T1 sequence (peptide): LSPGANSHVSRH

[2] = target: MBP-tagged recombinant ORF55 protein of cyprinid herpesvirus 2 (CyHV-2) strain YC-01 (Cyprinid herpesvirus 2 (CyHV-2), strain YC-01); assay: phage display panning; MBP-ORF55 coated in a 12-well plate (100, 90, 85 ug/mL in rounds 1-3); Ph.D.-12 library; Tween-20 0.1-0.5%; 50 plaques sequenced after the third round; only the target purified

Question: For “MBP-tagged recombinant ORF55 protein of cyprinid herpesvirus 2 (CyHV-2) strain YC-01”, which binding [1] is on record?
Answer: binds

Question: Which binding [2] does the source give for LSPGANSHVSRH [phage-displayed polypeptide … (Ph.D.-12 library clone)] here?
Answer: binds
